Data as given in PubChem BioAssay AID1053208 (Peter MacCallum Cancer Centre, 2014)

Aim: 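Find knock-downs that sensitise mouse osteosarcoma cells to doxorubicin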 (primary screen)
Cell system: mouse osteosarcoma cells, early-passage culture from an engineered mouse model of fibroblastic bone tumour
Knock-down reagent: siRNA pool against mouse genes, 40 nM
Time to read-out: about 120 h (48 h before drug, then 72 h with drug)
Challenge: doxorubicin 100 nM for 72 h, roughly 30-40% inhibitory dose
Measurement: 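Viability read as ATP luminescence after 72 h of 100 nM doxorubicin or none, duplicate wells averaged, scaled to non-targeting siRNA, then expressed as robust z-scores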
Scale: viability z-score with doxorubicin: higher = more viable cells under doxorubicin; viability z-score without drug: higher = more viable cells with knock-down alone
Active means: 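a pool counts as active when its viability z-score with doxorubicin is -2 or below and its z-score without drug lies between -2 and 2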
Here is a random part of about 17,000 deposited reagents. Over the whole deposit, 788 (4.7%) were called active. 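Calls rest on z-score classes alone; an extra cut-off of viability at most 70% of control was not applied to them.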 Entries without a mark were called inactive. A reagent listed more than once was tested more than once; the source does not tell the runs apart. Further read-outs or replicates are left out here.

How did the screen score Amph (GeneID 218038)?
combined z-score class: no change with or without drug; viability z-score with doxorubicin: 0.34; viability z-score without drug: 1.01

Which result is listed for Nfe2l1 (GeneID 18023)?
combined z-score class: no change with or without drug; viability z-score with doxorubicin: 1.35; viability z-score without drug: 1.35

With Cenpb (GeneID 12616), what was measured?
combined z-score class: no change with or without drug; viability z-score with doxorubicin: 0.45; viability z-score without drug: -0.17

For Adamtsl2 (GeneID 77794), what does the deposit list?
combined z-score class: no change with or without drug; viability z-score with doxorubicin: 0.9; viability z-score without drug: 0

Which result is listed for Or10v5 (GeneID 258938)?
combined z-score class: no change with or without drug; viability z-score with doxorubicin: 0.45; viability z-score without drug: 0.17

With Frem1 (GeneID 329872), what does the deposit list?
combined z-score class: no change with or without drug; viability z-score with doxorubicin: -1.24; viability z-score without drug: 0.34

With Plac8 (GeneID 231507), what does the deposit list?
combined z-score class: no change with or without drug; viability z-score with doxorubicin: 0.56; viability z-score without drug: 0.51

How did the screen score Spata21 (GeneID 329972)?
combined z-score class: high cell count without drug only; viability z-score with doxorubicin: 1.57; viability z-score without drug: 2.53

Which result is listed for Fpr-rs6 (GeneID 321020)?
combined z-score class: no change with or without drug; viability z-score with doxorubicin: 0.9; viability z-score without drug: 0.34

What is on record for Slc19a1 (GeneID 20509)?
combined z-score class: no change with or without drug; viability z-score with doxorubicin: -1.01; viability z-score without drug: 0.17

How did the screen score Lilrb4b (GeneID 14727)?
combined z-score class: no change with or without drug; viability z-score with doxorubicin: 0.45; viability z-score without drug: -0.84

What is on record for 4930512M02Rik (GeneID 102631730)?
combined z-score class: low cell count with doxorubicin only (active); viability z-score with doxorubicin: -2.47; viability z-score without drug: 0.84

With Olfr100 (GeneID 404307), what was measured?
combined z-score class: high cell count with doxorubicin only; viability z-score with doxorubicin: 2.02; viability z-score without drug: 0

What did the screen give for H1f6 (GeneID 107970)?
combined z-score class: no change with or without drug; viability z-score with doxorubicin: -0.11; viability z-score without drug: 0.34

How did the screen score Slc38a5 (GeneID 209837)?
combined z-score class: low cell count with doxorubicin only (active); viability z-score with doxorubicin: -2.02; viability z-score without drug: 0.51

With Phlpp1 (GeneID 98432), what does the deposit list?
combined z-score class: no change with or without drug; viability z-score with doxorubicin: 0.11; viability z-score without drug: -0.17

For Pank3 (GeneID 211347), what was measured?
combined z-score class: no change with or without drug; viability z-score with doxorubicin: 0.34; viability z-score without drug: -0.17

What did the screen give for Met (GeneID 17295)?
combined z-score class: no change with or without drug; viability z-score with doxorubicin: -0.22; viability z-score without drug: -1.85

What did the screen give for Nphp3 (GeneID 74025)?
combined z-score class: no change with or without drug; viability z-score with doxorubicin: 0.34; viability z-score without drug: -0.17

For Stk33 (GeneID 117229), how do the results read?
combined z-score class: no change with or without drug; viability z-score with doxorubicin: 0; viability z-score without drug: -0.84

With Sack1h (GeneID 105732), what does the deposit list?
combined z-score class: high cell count without drug only; viability z-score with doxorubicin: 0.34; viability z-score without drug: 2.02

For Cyp2c29 (GeneID 13095), how do the results read?
combined z-score class: no change with or without drug; viability z-score with doxorubicin: -0.67; viability z-score without drug: 0

What is on record for Plcz1 (GeneID 114875)?
combined z-score class: no change with or without drug; viability z-score with doxorubicin: -0.67; viability z-score without drug: -0.17

With Chp1 (GeneID 56398), what does the deposit list?
combined z-score class: no change with or without drug; viability z-score with doxorubicin: 0; viability z-score without drug: 0

With Utp23 (GeneID 78581), what does the deposit list?
combined z-score class: low cell count with doxorubicin only (active); viability z-score with doxorubicin: -2.25; viability z-score without drug: -1.18

With F7 (GeneID 14068), what does the deposit list?
combined z-score class: low cell count with doxorubicin only (active); viability z-score with doxorubicin: -2.02; viability z-score without drug: 0.51

What did the screen give for Rsph9 (GeneID 75564)?
combined z-score class: no change with or without drug; viability z-score with doxorubicin: -0.45; viability z-score without drug: 0.34

What did the screen give for Kcna7 (GeneID 16495)?
combined z-score class: no change with or without drug; viability z-score with doxorubicin: 0; viability z-score without drug: 0.67

With Stk26 (GeneID 70415), how do the results read?
combined z-score class: no change with or without drug; viability z-score with doxorubicin: 0; viability z-score without drug: -1.18

What is on record for Stk26 (GeneID 70415)?
combined z-score class: no change with or without drug; viability z-score with doxorubicin: -0.67; viability z-score without drug: 1.18

Which result is listed for Map2k3 (GeneID 26397)?
combined z-score class: no change with or without drug; viability z-score with doxorubicin: -0.56; viability z-score without drug: 1.52

For Or1e35 (GeneID 259007), what does the deposit list?
combined z-score class: no change with or without drug; viability z-score with doxorubicin: -0.79; viability z-score without drug: 1.18

How did the screen score Cdc5l (GeneID 71702)?
combined z-score class: low cell count without drug only; viability z-score with doxorubicin: -1.57; viability z-score without drug: -2.87

For Bcl2a1c (GeneID 12046), what does the deposit list?
combined z-score class: no change with or without drug; viability z-score with doxorubicin: 1.12; viability z-score without drug: 1.35

For Kap (GeneID 16483), how do the results read?
combined z-score class: no change with or without drug; viability z-score with doxorubicin: -0.67; viability z-score without drug: 0.84

For Ssu2 (GeneID 243612), what does the deposit list?
combined z-score class: low cell count with doxorubicin only (active); viability z-score with doxorubicin: -2.25; viability z-score without drug: 0.84

Quoted from the entries so far, 6 entries:
Stk26 (GeneID 70415): combined z-score class = no change with or without drug; viability z-score with doxorubicin = -0.67; viability z-score without drug = 1.18
Map2k3 (GeneID 26397): combined z-score class = no change with or without drug; viability z-score with doxorubicin = -0.56; viability z-score without drug = 1.52
Or1e35 (GeneID 259007): combined z-score class = no change with or without drug; viability z-score with doxorubicin = -0.79; viability z-score without drug = 1.18
Cdc5l (GeneID 71702): combined z-score class = low cell count without drug only; viability z-score with doxorubicin = -1.57; viability z-score without drug = -2.87
Bcl2a1c (GeneID 12046): combined z-score class = no change with or without drug; viability z-score with doxorubicin = 1.12; viability z-score without drug = 1.35
Kap (GeneID 16483): combined z-score class = no change with or without drug; viability z-score with doxorubicin = -0.67; viability z-score without drug = 0.84
